From patent publication US9448244B2, “Compound, and method for measuring iron concentration by using novel compound as chelate color former” (WAKO PURE CHEMICAL INDUSTRIES, LTD., priority 2012, dated 2016)

Assays:
Assay type in all cases: physicochemical
[1] = Absorbance measurement of iron chelate color development, first reagent solution pH 3.2 (Example 4 / Comparative Example 2); settings: saline as sample; R-1 glycine pH 3.2, R-2 tricine pH 9.0; color former 0.23 mM; 37° C.
Experimental: (§1) [Preparation of Reagent Solution]
(§2) (R-1) First Reagent Solution:
A 10 mM glycine buffer solution (pH 3.2) containing 0.5% (w/v) polyvinylpyrrolidone (K-90) (produced by Wako Pure Chemical Industries, Ltd.) was used as the first reagent solution.
(§3) (R-2) Second Reagent Solution:
A 100 mM tricine buffer solution (pH 9.0) containing 1 mM 4S-SPF which was synthesized in Example 1 or 1 mM 2S-4CPF which was synthesized in Example 2 was used as the second reagent solution.
The sample used was same as used in Example 3.
(§4) [Measurement of Absorbance]
For the above-described sample, the measurement of absorbance was carried out using the reagent solution described above and using JEOL BM6050 automatic analyzer (manufactured by JEOL Co., Ltd.) by the same measurement conditions as performed in Example 3.
It should be noted that, the concentration of 4S-SPF or 2S-4CPF at the time of measurement was 0.23 mM.
A 10 mM glycine buffer solution (pH 3.2) containing 0.5% (w/v) polyvinylpyrrolidone (K-90) was used as the first reagent solution.
A 100 mM tricine buffer solution (pH 9.0) containing 1 mM CPF was used as the second reagent solution. CPF was synthesized according to the method described in the Mitsuru Hoshino et al., Yakugaku Zassi, 2011, vol. 131, No. 7, p. 1095-1101 (Non-Patent Literature 1), and used.
The sample used was the same as used in Example 4.
For the above-described sample, the measurement of absorbance was carried out using the reagent solution described above and using JEOL BM6050 automatic analyzer (manufactured by JEOL Co., Ltd.) by the same measurement conditions as performed in Example 4.
It should be noted that, the concentration of the CPF at the time of measurement was 0.23

[2] = Absorption curve at 500 nm to 700 nm (Example 5 / Comparative Example 3); settings: physiological saline as sample; color former 0.24 mM; spectrophotometer; 37° C.
Experimental: as §1, §2
The same first reagent solution as used in Example 3 was used.
as §3
The same second reagent solution (containing 4S-SPF or 2S-4CPF) as used in Example 3 was used.
The same sample as used in Example 3 was used.
as §4
For the above-described sample, the measurement of absorbance was carried out using the reagent solution described above and using a Hitachi U-3900H Spectrophotometer (manufactured by Hitachi High-Technologies Co., Ltd.) by the following measurement conditions. In addition, for the measurement of reagent blank, physiological saline was used.
Reaction time: 5 minutes-5 minutes
Measurement wavelength: 500 nm to 700 nm
(§5) Measurement temperature: 37° C.
It should be noted that the concentration of 4S-SPF or 2S-4CPF at the time of measurement was 0.24 mM.
The same first reagent solution as used in Comparative Example 1 was used.
The same second reagent solution (containing CPF) as used in Comparative Example 1 was used.
The same sample as used in Comparative Example 1 was used.
For the above-described sample, the measurement of absorbance was carried out using the reagent solution described above and using a Hitachi U-3900H Spectrophotometer by the same measurement conditions as carried out in Example 5.
It should be noted that, the concentration of CPF at the time of measurement was 0.24 mM.

[3] = Absorbance measurement of iron chelate color development, first reagent solution pH 8.0 (Example 3 / Comparative Example 1); settings: physiological saline as sample; R-1 tricine pH 8.0, R-2 tricine pH 8.0; color former 0.23 mM; 596/694 nm; 37° C.
Experimental: as §1, §2
A 100 mM tricine buffer solution (pH 8.0) containing 0.5% (w/v) polyvinylpyrrolidone (K-90) (produced by Wako Pure Chemical Industries, Ltd.) was used as the first reagent solution.
as §3
A 100 mM tricine buffer solution (pH 8.0) containing 1 mM 4S-SPF synthesized in Example 1 or 1 mM 2S-4CPF synthesized in Example 2 was used as the second reagent solution.
Aqueous ferrous ammonium sulfate solution (containing 200 μg/dL iron) was prepared and used as a sample.
as §4
For the above-described sample, the measurement of absorbance was carried out using the reagent solution described above, and using JEOL BM6050 automatic analyzer (manufactured by JEOL Co., Ltd.) by the following measurement conditions. In addition, when the measurement of reagent blank, measurement was carried out in the same manner using physiological saline instead of the sample.
Analysis method/Reaction time: [EPA] [10]
Measurement point: [44], [47]-[95], [98].
Wavelength (secondary/dominant): [694] [596]
Sample volume: 8 μL (2 times dilution at measurement)
as §5
It should be noted that the concentration of 4S-SPF or 2S-4CPF at the time of measurement was 0.23 mM.
A 100 mM tricine buffer solution (pH 8.0) containing 0.5% (w/v) polyvinylpyrrolidone (K-90) was used as the first reagent solution.
A 100 mM tricine buffer solution (pH 8.0) containing 1 mM CPF was used as the second reagent solution. The CPF was synthesized according to the method described in the Mitsuru Hoshino et al., Yakugaku Zassi, 2011, vol. 131, No. 7, p. 1095-1101 (Non-Patent Literature 1), and used.
Aqueous ferrous ammonium sulfate solution (containing 200 μg/dL iron) prepared and used as a sample.
For the above-described sample, the measurement of absorbance was carried out using the reagent solution described above and using JEOL BM6050 automatic analyzer (manufactured by JEOL Co., Ltd.) by the same measurement conditions as performed in Example 3. […]

Structure (SMILES) | blank value (absorbance of reagent blank) [1] | absorbance of the blank at 590 nm to 600 nm [2] | blank value (absorbance of reagent blank) [3]
O=C(O)c1ccccc1-c1c2cc(O)c(=O)cc-2oc2cc(O)c(O)cc12 [CPF, 9-(2-carboxyphenyl)-2,3,7-trihydroxy-6-fluorone, reference compound] | high | high | high
O=C(O)c1ccc(-c2c3cc(O)c(=O)cc-3oc3cc(O)c(O)cc23)c(S(=O)(=O)O)c1 [2S-4CPF, 9-(4-carboxy-2-sulfophenyl)-2,3,7-trihydroxy-6-fluorone] | suppressed lower | suppressed lower | suppressed lower
O=c1cc2oc3cc(O)c(O)cc3c(-c3ccc(S(=O)(=O)O)cc3S(=O)(=O)O)c-2cc1O [4S-SPF, 9-(2,4-disulfophenyl)-2,3,7-trihydroxy-6-fluorone] | suppressed lower | suppressed lower | suppressed lower
